At least one compound was matched to its structure with a doubt left.
System: LNCaP cells
Test: Androgen-dependent proliferation of LNCaP cells (BrdU incorporation)
Assay type: cell-based, human
Details: R1881 0.1 nM, 4 days; 185-9-2 5 μg/ml, bicalutamide 10 μM
Method: The prostate gland is an androgen-dependent organ where androgens are the predominant mitogenic stimulus (Isaacs J T, Scott W W, Coffey D S., Prog Clin Biol Res. 1979; 33:133-44). This dependency on androgens provides the underlying rationale for treating prostate cancer with chemical or surgical castration. […] BrdU incorporation was measured 4 days later to indicate changes in proliferation in response to androgen (FIG. 12). […] Cancer Inst. Monogr. 49, 17-21).

CC(O)(CS(=O)(=O)c1ccc(F)cc1)C(=O)Nc1ccc(C#N)c(C(F)(F)F)c1 (stereo not shown) [bicalutamide, reference compound]
androgen-dependent proliferation of LNCaP cells (BrdU incorporation): blocking androgen-induced proliferation

Reference: patent publication US8686050B2, “Diglycidic ether derivative therapeutics and methods for their use” (British Columbia Cancer Agency Branch, priority 2008, dated 2014)
